Experimental findings from article PMC7229175 are described below.

Amino acid sequences for entries named in this document (tags omitted).
UniProt G3X9K3: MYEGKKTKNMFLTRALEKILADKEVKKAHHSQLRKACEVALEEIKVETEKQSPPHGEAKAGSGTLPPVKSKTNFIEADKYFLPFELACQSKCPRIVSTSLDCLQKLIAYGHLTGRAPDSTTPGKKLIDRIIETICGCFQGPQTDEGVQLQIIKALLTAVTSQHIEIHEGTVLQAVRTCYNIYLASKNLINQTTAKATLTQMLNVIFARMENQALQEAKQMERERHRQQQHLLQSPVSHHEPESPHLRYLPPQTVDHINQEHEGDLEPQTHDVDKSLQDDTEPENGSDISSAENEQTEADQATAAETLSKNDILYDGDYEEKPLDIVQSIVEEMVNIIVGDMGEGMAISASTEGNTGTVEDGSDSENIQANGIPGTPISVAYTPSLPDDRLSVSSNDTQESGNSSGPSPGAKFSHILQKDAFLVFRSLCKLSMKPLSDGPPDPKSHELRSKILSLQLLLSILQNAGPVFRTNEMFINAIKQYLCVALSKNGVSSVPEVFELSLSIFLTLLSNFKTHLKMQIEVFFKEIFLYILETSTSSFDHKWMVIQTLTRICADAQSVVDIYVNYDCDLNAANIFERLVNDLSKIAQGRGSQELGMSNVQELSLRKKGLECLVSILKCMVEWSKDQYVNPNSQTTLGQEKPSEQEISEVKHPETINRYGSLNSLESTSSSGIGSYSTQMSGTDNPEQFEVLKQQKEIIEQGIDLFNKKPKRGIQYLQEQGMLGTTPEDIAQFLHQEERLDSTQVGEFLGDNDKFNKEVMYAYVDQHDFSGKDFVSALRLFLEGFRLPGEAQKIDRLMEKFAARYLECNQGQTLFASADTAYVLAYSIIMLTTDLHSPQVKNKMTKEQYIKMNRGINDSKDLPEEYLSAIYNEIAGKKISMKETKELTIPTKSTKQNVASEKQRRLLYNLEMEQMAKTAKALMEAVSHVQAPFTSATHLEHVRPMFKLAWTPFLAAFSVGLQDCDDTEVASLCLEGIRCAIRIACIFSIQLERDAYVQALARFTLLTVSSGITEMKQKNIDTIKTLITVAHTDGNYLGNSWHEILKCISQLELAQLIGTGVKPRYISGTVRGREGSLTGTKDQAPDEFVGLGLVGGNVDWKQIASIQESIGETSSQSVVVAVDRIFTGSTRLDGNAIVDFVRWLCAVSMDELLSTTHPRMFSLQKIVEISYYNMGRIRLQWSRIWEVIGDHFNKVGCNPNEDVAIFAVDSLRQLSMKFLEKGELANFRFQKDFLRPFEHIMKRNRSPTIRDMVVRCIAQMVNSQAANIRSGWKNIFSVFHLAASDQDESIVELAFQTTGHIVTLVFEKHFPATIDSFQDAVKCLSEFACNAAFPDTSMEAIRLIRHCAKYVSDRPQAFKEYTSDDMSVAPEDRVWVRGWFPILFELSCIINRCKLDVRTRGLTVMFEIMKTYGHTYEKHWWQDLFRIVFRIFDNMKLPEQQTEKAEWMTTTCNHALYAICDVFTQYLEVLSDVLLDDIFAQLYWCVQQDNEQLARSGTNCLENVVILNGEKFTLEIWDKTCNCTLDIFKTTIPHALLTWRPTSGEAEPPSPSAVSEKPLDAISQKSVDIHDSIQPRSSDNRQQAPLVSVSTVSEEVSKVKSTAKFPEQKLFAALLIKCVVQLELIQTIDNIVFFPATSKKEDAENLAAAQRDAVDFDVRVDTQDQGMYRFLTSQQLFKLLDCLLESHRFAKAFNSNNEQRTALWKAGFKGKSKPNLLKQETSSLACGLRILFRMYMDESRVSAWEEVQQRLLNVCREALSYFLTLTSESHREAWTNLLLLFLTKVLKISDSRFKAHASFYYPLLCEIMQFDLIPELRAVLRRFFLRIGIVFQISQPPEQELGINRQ
UniProt P84078: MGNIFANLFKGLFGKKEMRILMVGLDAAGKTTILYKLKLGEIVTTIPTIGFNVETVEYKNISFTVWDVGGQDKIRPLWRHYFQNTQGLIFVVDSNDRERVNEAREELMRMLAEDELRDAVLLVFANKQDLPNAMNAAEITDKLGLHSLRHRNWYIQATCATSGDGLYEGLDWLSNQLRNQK
UniProt P61205: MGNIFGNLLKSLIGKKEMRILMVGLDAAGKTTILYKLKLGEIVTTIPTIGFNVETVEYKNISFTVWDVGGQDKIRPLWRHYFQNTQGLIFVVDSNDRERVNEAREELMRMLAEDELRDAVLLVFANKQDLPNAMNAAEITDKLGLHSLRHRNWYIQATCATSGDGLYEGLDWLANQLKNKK

The target in test [1] is Brefeldin A-inhibited guanine nucleotide-exchange factor 1 (BIG1) (mouse (endogenous in BMDMs)) (UniProt G3X9K3). Briefly: co-IP; lysates of WT BMDMs with or without LPS (100 ng/ml, 30 min), immunoprecipitation with BIG1 antibody, western blot; both proteins endogenous. Background: A western blot detects proteins with antibodies after separation by electrophoresis.
Test [2] deals with Myc-tagged ARF1 (Myc-mARF1) (mouse) (UniProt P84078). Briefly: co-IP; lysates of WT BMDMs transfected with Myc-ARF1 or Myc-ARF3, incubated with anti-Myc agarose 6 h at 4 °C; lysis buffer 50 mM Tris-HCl pH 7.5, 150 mM NaCl, 1% Nonidet P40, 0.1% SDS-Na; western blot (the legend calls it a pull-down assay).
For test [3], the target named is Myc-tagged ARF3 (Myc-mARF3) (mouse) (UniProt P61205). The description is as above.

Results are given in words; binding and its absence hold for the method and conditions named. In cells and extracts the contact can be indirect. Some binding calls cover weakened binding; strength is not graded here.

For “endogenous ARF3 (from UniProt P61205 1-181)”, the binding result in test [1] is listed as “binds”.

“Brefeldin A-inhibited guanine nucleotide-exchange factor 1 (BIG1) (from UniProt G3X9K3 1-1846)”: the binding result is reported as “no binding” in test [2] and “binds” in test [3].
